According to US20250366503A1, “NOVEL GLUCOPYRANOSIDE COMPOSITIONS FOR SWEETNESS ENHANCEMENT” (International Flavors & Fragrances Inc., priority 2022, published 2025):

Test: Taste and smell evaluation of water solutions of the compounds
Text: Water solutions of exemplary compounds including lipedoside B-IIIb, ligurobustoside E and ligurobustoside K were each prepared and evaluated at 1, 2 and 5 ppm, respectively.

Compound	Taste and smell of water solution (water solution, 5 ppm)	Taste and smell of water solution (water solution, 1, 2 and 5 ppm)
CC(C)=CCC/C(C)=C/CO[C@@H]1O[C@H](COC(=O)/C=C/c2ccc(O)cc2)[C@@H](O)[C@H](O[C@@H]2O[C@@H](C)[C@H](O)[C@@H](O)[C@H]2O)[C@H]1O [Ligurobustoside E, ligurobustoside E]	slight astringency	–
lipedoside B-IIIb	–	devoid of taste and smell
ligurobustoside K	–	devoid of taste and smell
